Measured values taken from BindingDB's records for doi:10.7270/Q2DJ5KHH (D3R/Abbott, 2020).

Amino acid sequences for entries named in this document (tags omitted).
UniProt P35968, whole entry: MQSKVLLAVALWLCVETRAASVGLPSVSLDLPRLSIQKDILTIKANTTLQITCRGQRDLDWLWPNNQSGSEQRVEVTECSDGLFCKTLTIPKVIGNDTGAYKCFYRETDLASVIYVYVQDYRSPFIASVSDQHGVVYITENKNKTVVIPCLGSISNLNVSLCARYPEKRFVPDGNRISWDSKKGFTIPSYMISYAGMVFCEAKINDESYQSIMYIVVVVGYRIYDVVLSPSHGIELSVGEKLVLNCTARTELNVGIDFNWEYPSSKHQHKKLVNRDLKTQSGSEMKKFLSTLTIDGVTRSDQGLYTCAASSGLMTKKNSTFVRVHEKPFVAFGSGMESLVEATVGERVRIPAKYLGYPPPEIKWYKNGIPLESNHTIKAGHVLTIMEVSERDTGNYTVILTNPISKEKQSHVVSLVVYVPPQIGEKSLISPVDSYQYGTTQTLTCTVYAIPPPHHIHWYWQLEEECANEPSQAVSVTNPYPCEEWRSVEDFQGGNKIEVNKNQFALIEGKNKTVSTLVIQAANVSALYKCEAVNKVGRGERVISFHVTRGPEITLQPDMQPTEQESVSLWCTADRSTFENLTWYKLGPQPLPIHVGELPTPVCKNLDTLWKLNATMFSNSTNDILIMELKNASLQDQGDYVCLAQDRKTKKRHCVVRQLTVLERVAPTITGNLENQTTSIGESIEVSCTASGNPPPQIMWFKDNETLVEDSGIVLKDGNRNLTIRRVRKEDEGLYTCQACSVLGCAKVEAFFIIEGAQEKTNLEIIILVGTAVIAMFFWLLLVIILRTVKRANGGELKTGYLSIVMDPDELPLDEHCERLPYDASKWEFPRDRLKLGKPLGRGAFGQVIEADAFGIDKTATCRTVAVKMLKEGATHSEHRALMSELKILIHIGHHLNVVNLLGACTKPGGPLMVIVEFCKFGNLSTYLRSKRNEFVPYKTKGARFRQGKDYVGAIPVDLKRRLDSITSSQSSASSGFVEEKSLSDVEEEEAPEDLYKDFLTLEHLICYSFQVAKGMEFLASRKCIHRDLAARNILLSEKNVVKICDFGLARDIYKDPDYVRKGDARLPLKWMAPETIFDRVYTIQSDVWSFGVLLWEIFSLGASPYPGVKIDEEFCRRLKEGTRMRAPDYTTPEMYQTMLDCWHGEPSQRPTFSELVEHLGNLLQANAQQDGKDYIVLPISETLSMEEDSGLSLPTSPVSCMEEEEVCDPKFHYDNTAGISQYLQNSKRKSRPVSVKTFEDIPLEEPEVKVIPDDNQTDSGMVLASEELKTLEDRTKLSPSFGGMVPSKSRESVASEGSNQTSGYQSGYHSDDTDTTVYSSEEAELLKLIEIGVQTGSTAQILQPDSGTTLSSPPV

Biological target: Vascular endothelial growth factor receptor 2 (Homo sapiens, UniProt P35968)

| Structure (SMILES) | Kd |
| --- | --- |
| Cc1ccc(C)c(Oc2nccc(-c3c(-c4ccc(F)cc4)ncn3C3CCNCC3)n2)c1 [2-(2,5-Dimethyl-phenoxy)-4-[5-(4-fluoro-phenyl)-3-piperidin-4-yl-3H-imidazol-4-yl]-pyrimidine] | 10 µM |
| Cc1cc(C)cc(Oc2nccc(-c3c(-c4ccc(F)cc4)ncn3C3CCNCC3)n2)c1 [2-(3,5-Dimethyl-phenoxy)-4-[5-(4-fluoro-phenyl)-3-piperidin-4-yl-3H-imidazol-4-yl]-pyrimidine] | 10 µM |
| CS(=O)(=O)c1ccccc1-c1nc(-c2ccc(F)cc2)c(-c2ccncc2)[nH]1 [D3RKN_30] | 7 µM |
| O=C(O)c1ccc(-c2nc(-c3ccc(F)cc3)c(-c3ccncc3)[nH]2)cc1 [D3RKN_53] | 10 µM |
